Measured values taken from PMC6403222, “Identification of a novel class of RIP1/RIP3 dual inhibitors that impede cell death and inflammation in mouse abdominal aortic aneurysm models” (Cell Death & Disease, 2019).
No constants are given. Whether binding was seen depends on the method and setting. Binding seen in cells or lysates may run through a third protein. Some results given as binding are weak or reduced against the parent protein; the word gives no strength.

What was measured:
[1] = biological target: T1, Receptor interacting protein kinase-3 (mouse (endogenous in MOVAS and L929)), Q9QZL0; assay: co-IP; MOVAS (30 ng/ml TNFα plus 60 μM zVAD, 3 h) and L929 cells after necroptosis induction; lysate in Pierce IP Lysis Buffer; anti-RIP3 or isotype control on Protein A magnetic beads, 1 h at room temperature; immunoblot; conditions: remark: other sources report otherwise
[2] = biological target: T1, Receptor interacting protein kinase-3 …; assay: proximity ligation; in situ PLA (Duolink) on fixed, permeabilised MOVAS (30 ng/ml TNFα plus 60 μM zVAD, 3 h) and L929 cells after necroptosis induction; conditions: remark: other sources report otherwise

B1: Receptor interacting protein kinase-1, Q60855 1-656 (protein)
chain: MQPDMSLDNIKMASSDLLEKTDLDSGGFGKVSLCYHRSHGFVILKKVYTGPNRAEYNEVLLEEGKMMHRLRHSRVVKLLGIIIEEGNYSLVMEYMEKGNLMHVLKTQIDVPLSLKGRIIVEAIEGMCYLHDKGVIHKDLKPENILVDRDFHIKIADLGVASFKTWSKLTKEKDNKQKEVSSTTKKNNGGTLYYMAPEHLNDINAKPTEKSDVYSFGIVLWAIFAKKEPYENVICTEQFVICIKSGNRPNVEEILEYCPREIISLMERCWQAIPEDRPTFLGIEEEFRPFYLSHFEEYVEEDVASLKKEYPDQSPVLQRMFSLQHDCVPLPPSRSNSEQPGSLHSSQGLQMGPVEESWFSSSPEYPQDENDRSVQAKLQEEASYHAFGIFAEKQTKPQPRQNEAYNREEERKRRVSHDPFAQQRARENIKSAGARGHSDPSTTSRGIAVQQLSWPATQTVWNNGLYNQHGFGTTGTGVWYPPNLSQMYSTYKTPVPETNIPGSTPTMPYFSGPVADDLIKYTIFNSSGIQIGNHNYMDVGLNSQPPNNTCKEESTSRHQAIFDNTTSLTDEHLNPIRENLGRQWKNCARKLGFTESQIDEIDHDYERDGLKEKVYQMLQKWLMREGTKGATVGKLAQALHQCCRIDLLNHLIRASQS
In the case of B1, the binding [1] is reported as “binds” and the binding [2] is reported as “binds”.
